Out of some 31,000 sequences screened, about 1,400 (4.5%) were called active.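 The calls were made as follows: active = median seed-adjusted z-score above 1 or below -1; inactive = the rest.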 The list shows a part of the results.
Experiment: Novel Modifiers of Survival Motor Neuron (SMN) Protein: Gene Identification via Genome-wide siRNA Screen;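 also: luminescence tracks full-length SMN protein made from the SMN2 reporter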
Details: HEK293T SMN2-luciferase reporter, siRNA knockdown, 72 h; actives lie on both sides
Procedure, shortened: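 Genome-wide siRNA screen (10418 genes, 3 siRNAs each, 1 pmol per well) by reverse transfection in HEK293T cells stably carrying an SMN2-luciferase reporter; luminescence after 72 hours, normalized to negative-control siRNA, log10-transformed, MAD-scored.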

Sequence	median seed-adjusted z-score
GGGUAUUAGCCGACAGUAATT against CPEB1	inactive: -0.349
GCGGAAGUCUUACUCAAUATT against ELF4	inactive: -0.0311
AGACAAAGAUUGAUAAACATT against SLC24A3	inactive: 0.0177
ACAGCGAGGUCAAAAGAAATT against HSD11B1	inactive: -0.174
GCAUGUGCGUCAAUACCGATT against GCK	inactive: -0.286
CUGGUACAGUGAUCGGGAATT against PCDH12	inactive: 0.0177
GCAGCAACCCAAUAGGUCATT against RGL4	inactive: 0.201
GAAUUAUGACCAACAUCUATT against CCR3	inactive: -0.334
GACAAUUGGUCAGAUAGAATT against RNASET2	inactive: -0.126
GGACAGGAAUGUCAAAAUATT against SYTL3	inactive: 0.236
CCUUCACUCGCGAUAACAATT against COPS3	inactive: 0.176
GCAGAAAGGUGUAGAAUGUTT against ZIM3	inactive: -0.02
CAAGCUAGAUCAGAAGUAUTT against SERPINA10	inactive: 0.0233
GAACGAAGAUGUAACUGUUTT against TOM1L1	inactive: -0.0722
GGAAGAAUGUGGAGCUCAATT against ADRBK1	inactive: 0
GCUCUGAGAUCAAAUCCGATT against TCF4	inactive: 0.107
GGAAUAGUUCAACUACGAATT against CUL5	inactive: 0.0143
GGCAUUGCUUAAUGAUAUATT against SF3B1	active: -3.65
GCUCGGACUUCAACAACUATT against PPAP2C	active: -1.12
AGGCCUUUCUUACCCAGAATT against MAP2K1	inactive: 0.942
GGGCUGGAUUGGUACAGGATT against HS3ST2	inactive: 0.133
GGAUUAUCUCCUCAUUACATT against MCF2L2	inactive: -0.465

Sequence	median seed-adjusted z-score
GCUUUGGAGAUGAGCCGUATT against CLPB	inactive: -0.985
CACUAACUAUCAUGAGAUATT against PSMC6	inactive: -0.578
CCAGAAACGUACACCUGAUTT against COX7B	active: -1.16
CAACGGCAAUCAAGCGUAATT against SRP68	inactive: 0.721
GGCUCGUCCUUCCAAGUUATT against SLC23A2	inactive: -0.0585
CGUCGUCACUAACAGUCAATT against FCGRT	inactive: -0.00396
GGAUUUCCCUGCAUCGACATT against GALNT4	inactive: 0.419
GGUUGUAGUUUACGAUCAATT against DUSP16	inactive: 0
GACUCAUAUAUUACAUCAATT against ADAM23	inactive: -0.0279
GGGAGAACGUGACCAUCUATT against ICAM5	active: -1
UGAUCGCCUUGGUGAUUCATT against FOXH1	inactive: 0
GGGCUUUUACUACAAGGAUTT against HR	inactive: 0.751
UCAACUUUACGUGCACUGATT against HLA-B	inactive: -0.355
GGCAGUUCAGUUUUUCGUATT against DNAJC7	inactive: 0.268
ACAAAGAGUUGAACAAAGATT against SEMA4A	inactive: 0.0377
ACCACUUUGAGGUCACUUUTT against TP73	inactive: 0.353
GAAUGAUAAUUGUUGGAGUTT against SLC18A2	inactive: 0.777
GAGUGGACACUAACCACAATT against SCNN1G	inactive: -0.616
CAAGCCUAGUGCUUCGUUUTT against RAB5A	inactive: 0.244
CUCAGGAUGUUGUAUCUAATT against CEBPZ	inactive: 0.301
CAGAGAACCUUCAAGUUAATT against ZNF239	inactive: -0.191
CUCUGCUUAUCAUCAUCUATT against OPN4	inactive: 0.167

Part of the list above, comma-delimited.
Sequence,median seed-adjusted z-score
GCUUUGGAGAUGAGCCGUATT against CLPB,inactive: -0.985
CACUAACUAUCAUGAGAUATT against PSMC6,inactive: -0.578
CCAGAAACGUACACCUGAUTT against COX7B,active: -1.16
CAACGGCAAUCAAGCGUAATT against SRP68,inactive: 0.721
GGCUCGUCCUUCCAAGUUATT against SLC23A2,inactive: -0.0585
CGUCGUCACUAACAGUCAATT against FCGRT,inactive: -0.00396
GGAUUUCCCUGCAUCGACATT against GALNT4,inactive: 0.419
GGUUGUAGUUUACGAUCAATT against DUSP16,inactive: 0
GACUCAUAUAUUACAUCAATT against ADAM23,inactive: -0.0279
GGGAGAACGUGACCAUCUATT against ICAM5,active: -1
UGAUCGCCUUGGUGAUUCATT against FOXH1,inactive: 0
GGGCUUUUACUACAAGGAUTT against HR,inactive: 0.751
UCAACUUUACGUGCACUGATT against HLA-B,inactive: -0.355
GGCAGUUCAGUUUUUCGUATT against DNAJC7,inactive: 0.268
ACAAAGAGUUGAACAAAGATT against SEMA4A,inactive: 0.0377
ACCACUUUGAGGUCACUUUTT against TP73,inactive: 0.353
GAAUGAUAAUUGUUGGAGUTT against SLC18A2,inactive: 0.777
GAGUGGACACUAACCACAATT against SCNN1G,inactive: -0.616
CAAGCCUAGUGCUUCGUUUTT against RAB5A,inactive: 0.244
CUCAGGAUGUUGUAUCUAATT against CEBPZ,inactive: 0.301

More results

Sequence	median seed-adjusted z-score
GGGCAUCAAUUAUCGACUUTT against SLC16A1	inactive: -0.277
AGAUGAAGCUGCAAGUGUATT against COX10	inactive: 0.339
ACAUAGCCGUGUCCAGGUATT against GLYCTK	inactive: 0.0328
GCAUGGGCAACAAGAGUCATT against ATAD3C	inactive: -0.535
GGAUGUCAACUGUGCUUUUTT against MED24	active: -2.3
CCCUAAGGUUGACAAUUGATT against GABRG2	inactive: -0.479
CGUCAUGAGCCUCUACGAATT against PTPN5	inactive: 0.22
GGACUAGGAUAUGCCGUGATT against MYH15	inactive: -0.939
GCCUGCAACUCAUCUUUCATT against S100A1	inactive: 0
CGACAAGUGGGAGAUGGAATT against ABL1	inactive: -0.181
CGGGUAUGUUGAUAGCAUATT against FAM12B	inactive: 0.312
CCUCAGCAGUGUAAGAUAUTT against HAS2	inactive: 0.354
GUUGGAUCCUGGGACAAUATT against F13A1	inactive: -0.508
CGACGAGUCUUCCUGCAUATT against IRX6	inactive: -0.0329
AGAUGAGAUUUACCUGUGATT against UBE2G2	inactive: -0.043
CAAUAGGUGUGAAGAGGUATT against TRIM41	inactive: -0.164
CAAUGUCUCUAAGAAGGAUTT against STARD8	inactive: -0.135
CCAUUGCCGUAUGCAUCUATT against BTN2A1	inactive: 0.302
CAAACUUCUUCGAGAAGAATT against DUSP9	inactive: 0.61
GGAGACUAGUAAGCACUAUTT against JARID1B	inactive: 0
CACUAGUUUUGUUAGCGAATT against ATP13A4	active: -1.09
AGACCAUCGCAGAGACAGATT against SLC31A2	inactive: 0.401

Sequence	median seed-adjusted z-score
GGGAAAGCACAAACUCAGATT against HOXA4	inactive: 0.194
GAUACUCGUAUUAAGCCUATT against USP32	inactive: 0.484
GGAUGUUGGUUUUGGGAUUTT against SEC14L2	inactive: -0.253
GAAACGAUAUGAAUGUAAATT against ZNF491	inactive: 0.0642
GAAAACGAUUUUGAACAUATT against PSEN1	inactive: -0.679
UAAUCUCAUUCAAAGAAUATT against NEUROG3	inactive: 0.212
GAACUUACCUUCAACUACATT against NSD1	inactive: -0.372
UGCAUUCAAUGGAACCCAATT against FSHR	inactive: -0.462
GAUUGAUCUUGUUCCACGATT against TRIP12	inactive: 0.16
CGAUGAGAAUGUGAGUACUTT against ACCN1	inactive: -0.325
CCUCACGCGUGGAAAUACATT against ZDHHC11	inactive: -0.098
UGUUCUCACUAAUAGGUUUTT against TRIML1	inactive: 0
AUAUCUCCGCUAUCAUUGATT against CYP4F22	inactive: 0.383
CCAAGUUUACUUGAUCGUATT against LSAMP	inactive: -0.12
GCGACCACCUGAGCAAACATT against SP7	inactive: -0.0435
GGAGAGGAUUAUUUCCGCATT against SDR9C7	inactive: 0
GCUCCAAUGUCUACAGAAATT against MRGPRE	inactive: -0.65
GUCAAGAAUUUAUAGGGAATT against SOX5	inactive: 0.123
GCAUCUGCUCUGAAACAGATT against MPPE1	inactive: -0.409
GAACAAGCGCAUGACAAUATT against TERF2	inactive: 0.246
CAUAUUUACCUGAAUCACATT against TYMS	inactive: -0.6
GAUCAAAUAUGACUUCCUATT against GPR103	inactive: 0

Sequence	median seed-adjusted z-score
CAAUAGCUUUGCUAGAUAUTT against HIAT1	inactive: -0.0612
GGCACAGCUUAAACAGAAATT against JUN	inactive: 0.381
CGUGGAAUUUGGACACUUUTT against MYOC	inactive: 0.764
GGCAUUACCUGACAGCUUATT against RFX4	inactive: -0.0226
CAUUCGUUCUUACAAGGAATT against FMNL3	inactive: 0.481
CAUUGGUGUUGACAAUCCATT against CCT2	inactive: -0.0508
GGUCGAGUCUCAUUAAUCATT against ZNF84	inactive: -0.246
CUGACAUGCCUGUACCUCUTT against CDK5R1	inactive: 0.373
GGCUCUAGCUAGUAGUCAATT against PIGK	inactive: -0.456
AGAGACAUGUGCACCCAAATT against SPRR4	inactive: 0.211
CAGCGCAGAUGUUAACUCATT against ZFPM1	inactive: -0.925
CAACAUCGUGGUUUUUGAATT against CLDN8	inactive: 0.542
GACACUAUCUUGAUCAGAATT against ACLY	inactive: 0.478
CCUUUACCCUGGGAAUUGATT against PIGN	inactive: 0.215
CAGUCAAGGUUUAUAUUCUTT against KCNJ1	inactive: 0.0148
GGCACCGGAUGGUUACAUUTT against DDX1	inactive: 0.507
GCAGCUACAGGUCAUCUCATT against DGAT2	inactive: 0.195
GACCUUACGAGGUUUCUAATT against TSNAX	inactive: 0.514
GGAAGUAUUACACCGCAAATT against HMGCLL1	inactive: 0.275
CCAAACUAUUGUUAUCGUUTT against PPP2CA	inactive: 0.731
